SMILES strings stand for the structures.

This data set has as its system rats. Description: Sedation observation in morphine-treated rats. Conditions: morphine 10 mg/kg IV plus vehicle.

For `CN1CC[C@]23c4c5ccc(O)c4O[C@H]2[C@@H](O)C=C[C@H]3[C@H]1C5` [Morphine, morphine], the “time rats remained obviously sedated” value was “approximately 60 min”.

These data come from US12083089B2, “Compositions and methods for stimulating ventilatory and/or respiratory drive” (CASE WESTERN RESERVE UNIVERSITY, priority 2015, dated 2024).
